These are yes or no findings as the source states them, for the method shown. Binding seen in cells or lysates may run through a third protein. Some results given as binding are weak or reduced against the parent protein; the word gives no strength.
Experiments:
[1] = target: [35S]-labeled Flag-P4HA1 fused protein (human) (UniProt P13674); experiment: GST pulldown, autoradiograph (FIG. 2)
[2] = target: [35S]-labeled Flag-P4HA1 fused protein (human) (UniProt P13674); experiment: GST pulldown, SDS-PAGE and autoradiography

The chains behind the UniProt entries cited, without tags or fusion partners. Where a name states a change or a piece, a line headed by the entry shows the natural chain unless it says otherwise.
UniProt P13674: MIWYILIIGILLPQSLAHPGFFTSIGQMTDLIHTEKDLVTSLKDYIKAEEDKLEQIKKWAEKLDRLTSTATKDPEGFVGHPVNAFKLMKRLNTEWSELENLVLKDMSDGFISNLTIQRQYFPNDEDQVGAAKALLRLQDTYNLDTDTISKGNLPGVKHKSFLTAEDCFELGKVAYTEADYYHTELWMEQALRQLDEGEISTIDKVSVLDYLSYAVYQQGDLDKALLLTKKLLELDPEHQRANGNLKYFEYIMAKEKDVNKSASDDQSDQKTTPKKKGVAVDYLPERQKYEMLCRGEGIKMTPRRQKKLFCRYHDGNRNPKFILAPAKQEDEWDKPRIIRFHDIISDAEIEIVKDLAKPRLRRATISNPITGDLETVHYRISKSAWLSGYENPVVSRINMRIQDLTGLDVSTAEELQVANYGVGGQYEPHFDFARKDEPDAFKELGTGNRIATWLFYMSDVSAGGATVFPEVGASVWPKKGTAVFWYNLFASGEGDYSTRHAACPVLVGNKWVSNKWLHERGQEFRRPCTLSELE
UniProt Q86TM6: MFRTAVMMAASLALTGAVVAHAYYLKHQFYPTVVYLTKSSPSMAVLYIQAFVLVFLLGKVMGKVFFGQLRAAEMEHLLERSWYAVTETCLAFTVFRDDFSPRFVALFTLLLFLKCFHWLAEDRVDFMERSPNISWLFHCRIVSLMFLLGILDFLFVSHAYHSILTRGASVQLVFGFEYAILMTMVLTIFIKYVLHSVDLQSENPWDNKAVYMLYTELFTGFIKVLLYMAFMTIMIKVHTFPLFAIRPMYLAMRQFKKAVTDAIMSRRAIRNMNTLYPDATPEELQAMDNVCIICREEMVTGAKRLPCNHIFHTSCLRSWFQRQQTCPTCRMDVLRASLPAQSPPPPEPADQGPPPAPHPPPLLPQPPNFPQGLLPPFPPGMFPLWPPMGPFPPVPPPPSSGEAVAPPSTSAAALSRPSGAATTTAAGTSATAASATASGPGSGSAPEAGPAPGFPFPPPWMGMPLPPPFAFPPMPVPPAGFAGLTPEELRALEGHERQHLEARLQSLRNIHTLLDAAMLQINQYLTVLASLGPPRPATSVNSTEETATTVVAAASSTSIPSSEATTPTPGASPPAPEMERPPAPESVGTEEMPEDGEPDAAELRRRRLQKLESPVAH

binding [1]	binding [2]	Substance
binds	binds	GST-Syno RING fused protein (from UniProt Q86TM6 269-420)
binds	binds	GST-Syno dTM fused protein (from UniProt Q86TM6 236-617)
